Assay results from article PMC10995098.
These are yes or no findings as the source states them, for the method shown. Binding seen in cells or lysates may run through a third protein. Some results given as binding are weak or reduced against the parent protein; the word gives no strength.

Amino acid sequences for entries named in this document (tags omitted).
UniProt O95758: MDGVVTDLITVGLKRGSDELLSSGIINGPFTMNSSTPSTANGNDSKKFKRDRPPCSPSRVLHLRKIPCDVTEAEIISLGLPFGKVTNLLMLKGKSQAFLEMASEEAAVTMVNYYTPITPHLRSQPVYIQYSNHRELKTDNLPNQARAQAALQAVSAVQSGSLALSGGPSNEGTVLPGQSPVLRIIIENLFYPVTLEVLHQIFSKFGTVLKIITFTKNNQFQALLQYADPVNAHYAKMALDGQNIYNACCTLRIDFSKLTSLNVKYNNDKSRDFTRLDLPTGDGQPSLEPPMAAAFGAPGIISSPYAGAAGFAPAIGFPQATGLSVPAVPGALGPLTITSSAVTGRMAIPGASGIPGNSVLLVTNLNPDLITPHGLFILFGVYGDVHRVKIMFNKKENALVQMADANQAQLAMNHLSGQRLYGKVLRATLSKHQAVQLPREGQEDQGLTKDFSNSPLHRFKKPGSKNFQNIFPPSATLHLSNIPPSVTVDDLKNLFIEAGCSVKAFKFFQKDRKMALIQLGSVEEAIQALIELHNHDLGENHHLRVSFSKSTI

Target: Regulator of differentiation 1 (ROD1) (human) (UniProt O95758)
Experiment: co-IP; cells, bait and precipitating antibody not told; no methods section for the co-IP

B1: SRSF3 (protein, UniProt P84103 1-164)
chain: MHRDSCPLDCKVYVGNLGNNGNKTELERAFGYYGPLRSVWVARNPPGFAFVEFEDPRDAADAVRELDGRTLCGCRVRVELSNGEKRSRNRGPPPSWGRRPRDDYRRRSPPPRRRSPRRRSFSRSRSRSLSRDRRRERSLSRERNHKPSRSFSRSRSRSRSNERK
In the case of B1, the binding is reported as “binds”.
